{"source": "PubChem BioAssay AID330", "about": "(DTP/NCI, 2004)", "tested_on": "P388 leukemia ip, CD2F1 mice, survival T/C", "test": "NCI In Vivo Anticancer Drug Screen. Data for tumor model P388 Leukemia (intraperitoneal) in CD2F1 (CDF1) mice", "conditions": "T/C endpoint: median survival time, higher T/C = longer survival", "note": "The list shows only some results of the screen, not a fair sample: it gathers tests that were run many times, whatever their T/C, doses with no T/C, and many T/C values between a quarter and a half above the control. Further doses and runs are listed elsewhere. T/C is the treated group as % of the vehicle group. Some doses have a count of surviving animals in place of a T/C: the source holds a T/C of zero for them, seemingly a mark for toxic or unscored doses. Some doses without a T/C left all or most animals alive at the check, yet need not have been tolerated: the source hardly ever lists a survival T/C far under the control, and the zero likely stands for such cases as well. Counts of survivors are from the toxicity check (mostly the fifth day) where no day follows; animals may have died later. Schedule codes are those of the source, taken here to give the interval after Q, in days (D) or hours (H), and the number of doses after X. For survival time, the PubChem record calls one and a half times the control and up active, and a quarter to a half above the control has no call in these data; cut-offs in other NCI protocols can differ. Additions like (4×) say how often a value occurs here. Some T/C values carry the count of animals alive at the toxicity check (mostly the fifth day); without a count, all were alive then. Some entries were tested several times; the values are given in rising order."}
{"compound": "COc1cccc2c1C(=O)c1c(O)c3c(c(O)c1C2=O)C[C@@](O)(C(=O)CO)C[C@@H]3OC1CC(N)C(O)C(C)O1", "note": "(some centres not stated)", "values": [{"measurement": "T/C", "setting": "dose: 0.5 mg/kg/injection, schedule: Q04DX003 (ip), vehicle: saline, evaluated on day 9", "value": "122 % of control"}, {"measurement": "T/C", "setting": "dose: 0.5 mg/kg/injection, schedule: Q04DX003 (ip), vehicle: saline, evaluated on day 30", "value": "97 [4 of 6 alive], 112, 114, 125 % of control (2×)"}, {"measurement": "T/C", "setting": "dose: 0.5 mg/kg/injection, schedule: Q04DX003 (ip), vehicle: saline, evaluated on day 45", "value": "140 and 161 % of control"}, {"measurement": "T/C", "setting": "dose: 0.5 mg/kg/injection, schedule: Q04DX003 (ip), vehicle: water, evaluated on day 30", "value": "138 and 163 % of control"}, {"measurement": "T/C", "setting": "dose: 0.5 mg/kg/injection, schedule: Q04DX003 (ip), vehicle: water, evaluated on day 40", "value": "116 % of control"}, {"measurement": "T/C", "setting": "dose: 0.5 mg/kg/injection, schedule: Q04DX003 (ip), vehicle: water, evaluated on day 45", "value": "116, 120, 139, 142, 153 % of control"}, {"measurement": "T/C", "setting": "dose: 0.62 mg/kg/injection, schedule: Q01DX001 (ip), vehicle: water", "value": "144 % of control"}, {"measurement": "T/C", "setting": "dose: 0.63 mg/kg/injection, schedule: Q04DX003 (ip), vehicle: saline", "value": "132 % of control"}, {"measurement": "T/C", "setting": "dose: 0.65 mg/kg/injection, schedule: Q01DX009 (ip), vehicle: saline, evaluated on day 30", "value": "145 % of control"}, {"measurement": "T/C", "setting": "dose: 0.65 mg/kg/injection, schedule: Q01DX009 (ip), vehicle: saline, evaluated on day 45", "value": "169 % of control"}, {"measurement": "T/C", "setting": "dose: 0.65 mg/kg/injection, schedule: Q01DX009 (ip), vehicle: saline, evaluated on day 60", "value": "171 and 190 % of control"}, {"measurement": "T/C", "setting": "dose: 0.75 mg/kg/injection, schedule: Q04DX003 (ip), vehicle: water", "value": "127 % of control"}, {"measurement": "T/C", "setting": "dose: 0.78 mg/kg/injection, schedule: Q01DX009 (ip), vehicle: water, evaluated on day 30", "value": "168, 175, 181, 186 (2×), 189, 193 (2×), 197, 206, 212, 213, 248 % of control"}, {"measurement": "T/C", "setting": "dose: 0.78 mg/kg/injection, schedule: Q01DX009 (ip), vehicle: water, evaluated on day 45", "value": "96, 125, 154, 172, 174 (2×), 179, 181 (2×), 183, 185, 186, 186 [5 of 6 alive], 194 (2×), 198, 200 (2×), 201, 203, 233, 245, 255, 267 % of control"}, {"measurement": "survivor count", "setting": "dose: 0.78 mg/kg/injection, schedule: Q01DX009 (ip), vehicle: water", "value": "6 of 6"}, {"measurement": "T/C", "setting": "dose: 0.97 mg/kg/injection, schedule: Q04DX002 (ip), vehicle: saline", "value": "145 % of control"}, {"measurement": "T/C", "setting": "dose: 0.97 mg/kg/injection, schedule: Q04DX003 (ip), vehicle: saline, evaluated on day 45", "value": "101, 148, 153, 158, 160, 166, 167, 168, 170, 178, 191 % of control"}, {"measurement": "T/C", "setting": "dose: 0.97 mg/kg/injection, schedule: Q04DX003 (ip), vehicle: saline, evaluated on day 60", "value": "149 % of control"}, {"measurement": "T/C", "setting": "dose: 1.0 mg/kg/injection, schedule: Q01DX001 (ip), vehicle: DMSO", "value": "141 % of control"}, {"measurement": "T/C", "setting": "dose: 1.0 mg/kg/injection, schedule: Q01DX001 (ip), vehicle: other", "value": "136 % of control [8 of 10 alive]"}, {"measurement": "T/C", "setting": "dose: 1.0 mg/kg/injection, schedule: Q01DX001 (ip), vehicle: saline, evaluated on day 5", "value": "122 % of control (2×)"}, {"measurement": "T/C", "setting": "dose: 1.0 mg/kg/injection, schedule: Q01DX001 (ip), vehicle: saline, evaluated on day 7", "value": "140 % of control"}, {"measurement": "T/C", "setting": "dose: 1.0 mg/kg/injection, schedule: Q01DX001 (ip), vehicle: saline, evaluated on day 30", "value": "148 and 166 % of control"}, {"measurement": "T/C", "setting": "dose: 1.0 mg/kg/injection, schedule: Q01DX001 (ip), vehicle: saline, evaluated on day 35", "value": "131 % of control"}, {"measurement": "T/C", "setting": "dose: 1.0 mg/kg/injection, schedule: Q01DX001 (ip), vehicle: saline, evaluated on day 45", "value": "111 % of control"}, {"measurement": "T/C", "setting": "dose: 1.0 mg/kg/injection, schedule: Q01DX001 (ip), vehicle: saline, evaluated on day 60", "value": "117 % of control"}, {"measurement": "T/C", "setting": "dose: 1.0 mg/kg/injection, schedule: Q01DX005 (ip), vehicle: saline", "value": "149 % of control"}, {"measurement": "T/C", "setting": "dose: 1.0 mg/kg/injection, schedule: Q01DX009 (ip), vehicle: saline, evaluated on day 5", "value": "238 and 277 % of control"}, {"measurement": "T/C", "setting": "dose: 1.0 mg/kg/injection, schedule: Q01DX009 (ip), vehicle: saline, evaluated on day 30", "value": "126, 128, 200 % of control"}, {"measurement": "T/C", "setting": "dose: 1.0 mg/kg/injection, schedule: Q01DX009 (ip), vehicle: saline, evaluated on day 45", "value": "189, 203, 223 % of control"}, {"measurement": "T/C", "setting": "dose: 1.0 mg/kg/injection, schedule: Q01DX009 (ip), vehicle: saline, evaluated on day 60", "value": "154, 172, 201 % of control"}, {"measurement": "T/C", "setting": "dose: 1.0 mg/kg/injection, schedule: Q01DX009 (ip), vehicle: water, evaluated on day 5", "value": "193 % of control"}, {"measurement": "T/C", "setting": "dose: 1.0 mg/kg/injection, schedule: Q01DX009 (ip), vehicle: water, evaluated on day 30", "value": "94, 114, 117 (2×), 141, 153, 156, 157, 173, 185, 186, 187 (2×), 192, 194 (2×), 198 (2×), 199 (2×), 200, 207, 209 (4×), 212, 213, 214, 221, 223, 230, 232, 266, 272 % of control"}, {"measurement": "T/C", "setting": "dose: 1.0 mg/kg/injection, schedule: Q01DX009 (ip), vehicle: water, evaluated on day 45", "value": "157, 171, 178, 183, 185, 186, 188, 192 (2×), 201, 202, 203, 204, 205 (2×), 216, 223 (2×), 230, 231, 236, 238, 241, 271, 295 % of control"}, {"measurement": "T/C", "setting": "dose: 1.0 mg/kg/injection, schedule: Q01DX009 (ip), vehicle: water, evaluated on day 60", "value": "193 % of control"}, {"measurement": "survivor count", "setting": "dose: 1.0 mg/kg/injection, schedule: Q01DX009 (ip), vehicle: water", "value": "6 of 6"}, {"measurement": "T/C", "setting": "dose: 1.0 mg/kg/injection, schedule: Q03HX008 (ip), vehicle: saline", "value": "137 % of control"}, {"measurement": "T/C", "setting": "dose: 1.0 mg/kg/injection, schedule: Q04DX003 (ip), vehicle: saline, evaluated on day 5", "value": "157 and 160 % of control"}, {"measurement": "T/C", "setting": "dose: 1.0 mg/kg/injection, schedule: Q04DX003 (ip), vehicle: saline, evaluated on day 8", "value": "137 % of control"}, {"measurement": "T/C", "setting": "dose: 1.0 mg/kg/injection, schedule: Q04DX003 (ip), vehicle: saline, evaluated on day 9", "value": "125 % of control"}, {"measurement": "T/C", "setting": "dose: 1.0 mg/kg/injection, schedule: Q04DX003 (ip), vehicle: saline, evaluated on day 30", "value": "104, 108 (2×), 109 (2×), 112 (2×), 114, 115, 117, 117 [5 of 6 alive on day 9], 122, 123, 124 (2×), 130, 135 [5 of 6 alive], 145, 176 % of control"}, {"measurement": "T/C", "setting": "dose: 1.0 mg/kg/injection, schedule: Q04DX003 (ip), vehicle: saline, evaluated on day 45", "value": "153, 156, 187 % of control"}, {"measurement": "T/C", "setting": "dose: 1.0 mg/kg/injection, schedule: Q04DX003 (ip), vehicle: saline, evaluated on day 60", "value": "160 % of control"}, {"measurement": "T/C", "setting": "dose: 1.0 mg/kg/injection, schedule: Q04DX003 (ip), vehicle: water, evaluated on day 30, list 1 of 2", "value": "96 [5 of 6 alive], 102, 107, 108, 109 (2×), 111, 111 [5 of 6 alive], 113 (2×), 114 (2×), 115, 116, 117 (2×), 118, 119, 120, 121, 122 (2×), 123, 124, 125, 127, 128, 129, 130 (2×), 131, 133, 136, 145, 157 % of control"}, {"measurement": "T/C", "setting": "dose: 1.0 mg/kg/injection, schedule: Q04DX003 (ip), vehicle: water, evaluated on day 30, list 2 of 2", "value": "100, 103, 108, 109 (2×), 110, 111, 112, 113, 114 (3×), 116, 117 (2×), 118, 119, 120 (2×), 121, 122, 123 (2×), 124, 127 (2×), 129, 130 (3×), 133 (2×), 142 [5 of 6 alive], 155, 172 % of control"}, {"measurement": "T/C", "setting": "dose: 1.0 mg/kg/injection, schedule: Q04DX003 (ip), vehicle: water, evaluated on day 35", "value": "110, 116 [5 of 6 alive on day 9], 118, 119 (2×), 121, 123 (2×), 126, 127 (2×), 133, 141, 142 % of control"}, {"measurement": "T/C", "setting": "dose: 1.0 mg/kg/injection, schedule: Q04DX003 (ip), vehicle: water, evaluated on day 40", "value": "107, 120, 126, 128, 134 % of control"}, {"measurement": "T/C", "setting": "dose: 1.0 mg/kg/injection, schedule: Q04DX003 (ip), vehicle: water, evaluated on day 45", "value": "103, 107, 108 (2×), 109 (3×), 109 [5 of 6 alive on day 9], 110, 111 (3×), 112, 113 (2×), 114 (3×), 115, 116 (2×), 117 (3×), 118, 119 (3×), 121, 122 (2×), 123 (2×), 124, 125 (2×), 126 (3×), 128, 128 [5 of 6 alive], 129 (2×), 130, 132, 133, 148, 157, 161, 162, 166, 173, 174, 182 % of control"}, {"measurement": "T/C", "setting": "dose: 1.0 mg/kg/injection, schedule: Q04DX003 (ip), vehicle: water, evaluated on day 46", "value": "173 % of control"}, {"measurement": "T/C", "setting": "dose: 1.0 mg/kg/injection, schedule: Q04DX003 (ip), vehicle: water, evaluated on day 50", "value": "109, 112, 115, 120, 138 % of control"}, {"measurement": "T/C", "setting": "dose: 1.0 mg/kg/injection, schedule: Q04DX003 (ip), vehicle: water, evaluated on day 60", "value": "113 and 129 % of control"}, {"measurement": "T/C", "setting": "dose: 1.04 mg/kg/injection, schedule: Q04DX002 (ip), vehicle: saline", "value": "148 % of control"}]}
